# Source: PubChem BioAssay AID504444 (National Center for Advancing Translational Sciences (NCATS), 2011)
# Hit rate of the full screen: of about 360,000 compounds, about 7,500 (2.1%) were called active. This list was built around the results that the source calls inconclusive (neither active nor inactive); the mix of calls is not that of the screen. Calls follow the shape of the dose curve; as a rule, active = well fitted inhibition curve with a large enough effect; inconclusive = small, poorly fitted or top-dose-only effect, or effect the other way; inactive = flat fitted curve, though single readings scatter. Where the call is inconclusive, the potency comes from a doubtful curve fit.
# Experiment: Nrf2 qHTS screen for inhibitors; also: nearly all actives have a fitted effect of over 60% in size
# Details: A549 ARE-Fluc reporter, luciferase luminescence, 18-24 h; activity change, negative = inhibition: at 46 µM (top of the series)
# Procedure, shortened: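 Nrf2 function is reported as luminescence of an ARE-controlled luciferase in A549 cells. Compounds were tested at several concentrations, and a CellTiter-Fluor read on the same wells flagged cytotoxicity.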
# % is scaled to controls: 0 for no effect and ±100 for the full control effect; potency is read from the fitted curve at half-maximal effect.
SMILES,Potency,"activity change, negative = inhibition"
CN(C(=O)c1ccc(Oc2ccc([N+](=O)[O-])cc2)cc1)C1CCCCC1,active: 25.9 µM,
CCOc1ccccc1NC(=O)CCc1c(C)nc2cc(-c3ccccc3)nn2c1C,"inconclusive: 1.84 µM [falling, full curve]",
COc1ccc(-n2c(C)c(C(=O)O)c3cc(OC)c4ccccc4c32)cc1,"inconclusive: 16.4 µM [falling, single point]",
O=[N+]([O-])c1cccc(NN=Nc2ccccc2)c1,"inconclusive: 5.17 µM [activator, full curve]",
COc1ccc(NC(=O)CN2CCN(CC(=O)Nc3ccccc3Cl)CC2)cc1Cl,"inconclusive: 25.9 µM [falling, single point]",
O=C(CN1C(=O)c2cccnc2Oc2ccc(Cl)cc21)NCCCc1ccccc1,"inconclusive: 32.6 µM [falling, partial curve, poor fit]",
CCN(CC)C(=O)Cn1nc(C)c2ccccc2c1=O,,inactive: 16%
O=C(Cc1ccccc1)N/N=C/c1ccc2c(c1)OCO2,"inconclusive: 8.2 µM [activator, partial curve]",
Cc1cccc(NC(=O)Nc2nnc(N3CCCC3)s2)c1,"inconclusive: 18.4 µM [falling, partial curve]",
O=C(NCC1CCCO1)C1CCC(CNS(=O)(=O)c2ccccc2)CC1 (stereo not given),"inconclusive: 2.59 µM [activator, partial curve, poor fit]",
CC1=C(C(=O)OC(C)C)C(c2cccnc2)C2=C(CC(C)(C)CC2=O)N1 (stereo not given),,inactive: 11.6%
O=C(Cc1ccc(Cl)cc1)Nc1ccc(-c2cc3ccccc3oc2=O)c(Cl)c1,"inconclusive: 25.9 µM [falling, single point]",
COCCNC(=S)N1CCN(c2nc(-c3ccc(Cl)cc3)cs2)CC1,"inconclusive: 16.4 µM [falling, single point]",
Cc1cc(C(=O)NCc2ccccc2)c2c(C)nn(-c3cccc(Cl)c3C)c2n1,"inconclusive: 8.2 µM [activator, partial curve, poor fit]",
Cc1ccc(NC(=S)NCc2cccn2C)cc1,"inconclusive: 16.4 µM [falling, single point]",
Nc1nc(-c2ccco2)nn1C(=O)c1ccccc1Cl,active: 1.84 µM,
Brc1cccc2sc(N3CCCC3)nc12,"inconclusive: 23.1 µM [activator, single point]",
CCc1cc(-c2ccc3c(c2)COc2c4ccccc4nn2-3)on1,"inconclusive: 1.03 µM [activator, partial curve, poor fit]",
Cc1ccccc1C(=O)Nc1ccccc1-c1nc(-c2ccccc2)no1,"inconclusive: 29.1 µM [activator, single point]",
N#CCn1cnc2sc(-c3ccccc3)cc2c1=O,"inconclusive: 10.3 µM [activator, partial curve, poor fit]",
COc1ccc(-n2nnnc2-c2nc3ccccc3s2)cc1,"inconclusive: 25.9 µM [falling, single point]",
Cc1ccc(-c2csc(NC(=O)c3c(C)noc3C)n2)cc1,"inconclusive: 20.6 µM [falling, single point]",

SMILES,Potency,"activity change, negative = inhibition"
CCc1nc2nc(C)c(NS(=O)(=O)c3ccc(F)c(C)c3)c(=O)n2[nH]1,"inconclusive: 20.6 µM [activator, single point]",
CCOc1ccc2nc(N3CCCC(C(=O)NCCc4ccc(C)cc4)C3)sc2c1 (stereo not given),"inconclusive: 3.66 µM [activator, full curve, poor fit]",
CCc1c(C)nc2ncnn2c1NCCc1ccccc1,"inconclusive: 14.6 µM [falling, partial curve, poor fit]",
CC(C(=O)Nc1ccccc1)n1nnc2sc3c(c2c1=O)CCCC3 (stereo not given),"inconclusive: 32.6 µM [falling, single point]",
Cc1nc2c(oc3ccccc32)c(=O)o1,"inconclusive: 23.1 µM [activator, partial curve, poor fit]",
CS(=O)(=O)N(CC(=O)NCCSc1ccccc1)c1ccc2c(c1)OCO2,,inactive: -3.91%
O=C1c2cccc([N+](=O)[O-])c2C(=O)N1c1c[nH]c(=O)[nH]c1=O,"inconclusive: 25.9 µM [activator, single point]",
Cc1ccc(OCC(=O)Nc2cccc3ccc(C)nc23)c(C)c1,"inconclusive: 32.6 µM [falling, single point]",
COCCCNc1oc(-c2ccccc2OC)nc1C#N,"inconclusive: 32.6 µM [falling, single point]",
CC(C)(C)c1csc(NC(=O)Cc2ccc(S(=O)(=O)N3CCOCC3)s2)n1,"inconclusive: 16.4 µM [falling, single point]",
O=C(N/N=C/c1ccc([N+](=O)[O-])s1)c1ccncc1,"inconclusive: 29.1 µM [activator, single point]",
COc1ccc(OCC(=O)Nc2cc(OC)ccc2N2CCCCC2)cc1,"inconclusive: 29.1 µM [falling, single point]",
COc1ccccc1N1CCN(c2ccc3ccccc3n2)CC1,"inconclusive: 1.3 µM [activator, full curve]",
COC(=O)c1[nH]c2ccccc2c1NC(=O)CN1CCN(Cc2ccc3c(c2)OCO3)CC1,"inconclusive: 3.66 µM [falling, partial curve, poor fit]",
CCCn1nnc(NC(=S)NC(=O)/C=C/c2ccc(Cl)cc2)n1,"inconclusive: 2.31 µM [falling, partial curve, poor fit]",
O=C(NCCS(=O)(=O)N1CCN(c2ccccc2F)CC1)C1CC(=O)N(c2ccc(F)cc2)C1 (stereo not given),"inconclusive: 6.51 µM [falling, single point]",
CCc1ccccc1N(CC)C(=O)Cn1nc(Cc2ccncc2)c2ccccc2c1=O,"inconclusive: 18.4 µM [falling, partial curve, poor fit]",
Cc1cc(C(=O)CN2C(=O)NC(c3ccccc3)(c3ccccc3)C2=O)c(C)n1Cc1ccco1,"inconclusive: 23.1 µM [falling, single point]",
CNCc1cc(Cl)cc(OC)c1OC(C)C,"inconclusive: 0.164 µM [falling, full curve, poor fit]",
CC(=O)c1cccc(OCc2cc(C(=O)NC(C)Cc3cccnc3)no2)c1 (stereo not given),,inactive: 7.73%
CC(=O)Nc1ccc(NC(=O)N2CCCCC2)cc1,"inconclusive: 29.1 µM [activator, single point]",
O=C(Nc1nnc(C(F)(F)F)s1)c1c(F)cccc1F,"inconclusive: 29.1 µM [falling, partial curve, poor fit]",

# Some of the entries so far, tab-delimited.
SMILES	Potency	activity change, negative = inhibition
CCOc1ccc2nc(N3CCCC(C(=O)NCCc4ccc(C)cc4)C3)sc2c1 (stereo not given)	inconclusive: 3.66 µM [activator, full curve, poor fit]	
CCc1c(C)nc2ncnn2c1NCCc1ccccc1	inconclusive: 14.6 µM [falling, partial curve, poor fit]	
CC(C(=O)Nc1ccccc1)n1nnc2sc3c(c2c1=O)CCCC3 (stereo not given)	inconclusive: 32.6 µM [falling, single point]	
Cc1nc2c(oc3ccccc32)c(=O)o1	inconclusive: 23.1 µM [activator, partial curve, poor fit]	
CS(=O)(=O)N(CC(=O)NCCSc1ccccc1)c1ccc2c(c1)OCO2		inactive: -3.91%
O=C1c2cccc([N+](=O)[O-])c2C(=O)N1c1c[nH]c(=O)[nH]c1=O	inconclusive: 25.9 µM [activator, single point]	
Cc1ccc(OCC(=O)Nc2cccc3ccc(C)nc23)c(C)c1	inconclusive: 32.6 µM [falling, single point]	
COCCCNc1oc(-c2ccccc2OC)nc1C#N	inconclusive: 32.6 µM [falling, single point]	
CC(C)(C)c1csc(NC(=O)Cc2ccc(S(=O)(=O)N3CCOCC3)s2)n1	inconclusive: 16.4 µM [falling, single point]	
O=C(N/N=C/c1ccc([N+](=O)[O-])s1)c1ccncc1	inconclusive: 29.1 µM [activator, single point]	
COc1ccc(OCC(=O)Nc2cc(OC)ccc2N2CCCCC2)cc1	inconclusive: 29.1 µM [falling, single point]	
COc1ccccc1N1CCN(c2ccc3ccccc3n2)CC1	inconclusive: 1.3 µM [activator, full curve]	
COC(=O)c1[nH]c2ccccc2c1NC(=O)CN1CCN(Cc2ccc3c(c2)OCO3)CC1	inconclusive: 3.66 µM [falling, partial curve, poor fit]	

# The listing continues:

SMILES,Potency,"activity change, negative = inhibition"
CC(=O)Nc1ccc(S(=O)(=O)N/N=C/c2ccc(C)s2)cc1,"inconclusive: 14.6 µM [activator, partial curve, poor fit]",
Cc1ccc(NC(=O)C2C3CCCCC32)cc1[N+](=O)[O-] (stereo not given),"inconclusive: 20.6 µM [activator, single point]",
Cc1ccn2c(Nc3ccc4c(c3)OCCO4)c(-c3ccc(N(C)C)cc3)nc2c1,"inconclusive: 0.651 µM [activator, full curve, poor fit]",
O=C(NNC(=O)c1ccccc1Cl)c1ccc2c(c1)OCCO2,"inconclusive: 10.3 µM [activator, partial curve]",
CNc1sc(C(=O)c2cccs2)c(N)c1-c1nc2ccccc2s1,"inconclusive: 2.59 µM [activator, full curve]",
COc1ccc(-c2c(C)nn3c(N4CCN(c5cc(Cl)ccc5C)CC4)cc(C)nc23)cc1OC,,inactive: -4.9%
CCOCCCNC(=S)N1CCN(c2nc(-c3ccccc3)cs2)CC1,active: 16.4 µM,
Oc1ccccc1/C=N/N1CCN(c2ccccn2)CC1,"inconclusive: 0.231 µM [activator, full curve]",
CC(C)CN1C(=O)c2ccc(C(=O)Nc3ccccc3C(=O)O)cc2C1=O,"inconclusive: 18.4 µM [activator, partial curve, poor fit]",
C/C(=N\NC(=O)c1ccc(CN2CCc3ccccc3C2)cc1)c1ccccc1O,"inconclusive: 29.1 µM [falling, single point]",
Oc1cccc(Nc2ncnc3c2oc2ccccc23)c1,"inconclusive: 25.9 µM [activator, single point]",
COc1ccc(N2CCN(Cc3nc4c(c(=O)n(C)c(=O)n4C)n3CC(C)=O)CC2)cc1,"inconclusive: 11.6 µM [falling, partial curve]",
CCOC(=O)c1ccc(NC(=S)N2CCSC2c2ccc(Cl)cc2)cc1 (stereo not given),active: 20.6 µM,
C[C@@H]1CC[C@]2(C(=O)O)CC[C@]3(C)C(=CCC4[C@]56CC[C@@](O)(OC5)C(C)(C)C6CC[C@]43C)C2[C@H]1C (stereo not given in full),active: 14.6 µM,
COc1cccc(C(C)NC(=O)c2c(F)cccc2Cl)c1 (stereo not given),,inactive: 4.69%
O=C(NC1CCCC1)c1cc(COc2ccc3ncccc3c2)on1,active: 6.51 µM,
CCOc1ccccc1NC(=O)Cn1nc(N2CCN(c3ccccc3)CC2)ccc1=O,"inconclusive: 11.6 µM [falling, partial curve, poor fit]",
Cc1ccc(CNC(=O)CSCc2nc(-c3cccc(C)c3)oc2C)cc1,"inconclusive: 16.4 µM [falling, partial curve, poor fit]",
C#CCN(C(=O)c1cc(COc2cccc(C(F)(F)F)c2)on1)C1CCCCC1,"inconclusive: 18.4 µM [falling, partial curve]",
Cc1nn(-c2ccc(N3CCCCC3)nn2)c(C)c1CCC(=O)Nc1ccc(F)c(F)c1,"inconclusive: 29.1 µM [falling, single point]",
Cc1cn2c(=O)c(S(=O)(=O)NCc3ccc(F)cc3)c(C)nc2s1,,inactive: 4.76%
